Here are results for one compound from patent US5698674A, “Triheterocyclic peptides capable of binding the minor and major grooves of DNA” (The Regents of the University of California, priority 1994, dated 1997).

For this data set, the system named is d(GGCGCAAATTTGGCGG)(SEQ ID NO:1)/d(CCGCCAAATTTGCGCC)(SEQ ID NO:2). Description: Hoechst 33258 (Ht) fluorescence competition, equilibrium association constants with hexadecamer duplex. The class given is binding. The conditions noted are these: pH 7.0, 35° C; mean ± SD. The method, then: Equilibrium constants for the association of 6a and 6b with oligomeric DNA were assessed by the complexing of tren-microgonotropen-a and -b to the hexadecamer d(GGCGCAAATTTGGCGG)(SEQ ID NO:1)/d(CCGCCAAATTTGCGCC)(SEQ ID NO:2) in aqueous solutions at 35° C. (2.8 mL solutions containing 0.01M phosphate buffer, pH 7.0, and 0.01M NaCl).
These reactions were followed by the competition of the dye Hoechst 33258 (Ht) with 6a and 6b for the A3 T3 minor groove binding site (an extension of Ht alone binding to dsDNA). The concentrations of 6a and 6b were confirmed by ^1 H NMR peak integration of resonances with those of an equivalent concentration of mesitoate.
As shown previously (Browne, K. A.; He, G.-X.; Bruice, T. C. J. Am. Chem. Soc. 1993, 115, 7072), monitoring the increase in fluorescence intensity as the association of Ht with the hexadecamer displaces prebound nonfluorescent ligands is an excellent method for determining equilibrium binding constants. […]
Eq 1, derived from FIG. 17, relates each of the equilibrium binding constants, the total fluorescence (Σθ), and [L] in terms of fluorescence (F) and [Ht]. […] The values of log KHt1 =7.6 and log KHt2 =9.1 used were determined from a reevaluation of data previously collected (Browne, et al., 1993, supra) and are very close to the previously determined values. […]

Where “and” joins values, the source holds several entries; their conditions need not be identical. Identical values can stand only once.

As for `CC(=O)Nc1cc(C(=O)Nc2cc(C(=O)Nc3cc(C(=O)NCCCN(C)C)n(C)c3)n(CCCCNCCN(CCN)CCN)c2)n(C)c1` [Compound 6b], the “Q' (static quenching term of DNA:Ht:L complex)” value was 0.64 and 0.64 ± 0.046.
